Measurements published in paper PMC12040169 (PLOS Biology, 2025).
The list shows a part of the results.

Test system: T1, CTL2-GFP (C. trachomatis L2/434/Bu, GFP-expressing)
T1 construct: L2/434/Bu, GFP-expressing
Parameters: species or system HeLa; Intracellular C. trachomatis growth in HeLa cells, bulk GFP fluorescence relative to DMSO
Conditions: bulk GFP, single well; 28.5 h, 10 µM; inhibitor

SMILES	% of control remaining [%]
OC1CC(c2cc(F)ccc2F)N(CCc2ccncc2)C1 (stereo not shown) [CBK305106]	118.503
CC(C)(C)OC(=O)NCc1ccc(CNCc2cccc(Cl)c2)cc1 [CBK056704]	88.7529
Cc1cc(CN2CCCN(S(=O)(=O)c3ccc(C(F)(F)F)cc3Cl)CC2)cc(C)c1O [CBK063102]	112.811
Cc1oc(CC(C)C)c(CN2CCCCC2)c1C(=O)O [CBK265448C]	95.9846
O=C(NC(c1ccccc1)c1ccccc1)N1CCN(CCc2ccccc2)CC1 [CBK158905]	119.534
Cc1ccc(CN(CCCn2ccnc2)Cc2cncn2C)s1 [CBK283106]	103.971
O=C1CC2(CCN(C(=O)c3ccoc3)CC2)Oc2ccc3ccccc3c21 [CBK156444]	103.013
COc1ccc(OC)c(-c2cc(C(=O)O)c(C)s2)c1 [CBK049922]	92.1457
C[C@@H]1CN(C(=O)c2cc3c(C(=O)OC(C)(C)C)ncn3c3ccc(Cl)cc23)C[C@H](C)N1 [CBK016744]	102.195
C[N+](C)(C)c1ccc(C(=O)O)cc1 [CBK260929B]	112.079
O=C([C@H]1O[C@H](CCN2CCN(c3ccccc3)CC2)CC[C@@H]1O)N1CCOCC1 [CBK288724]	106.495
CCOC(=O)C1CCCCN1S(=O)(=O)c1ccc(Br)s1 (stereo not shown) [CBK096110]	93.3878
Cc1c(-c2cncn2C(C)CN2CCOCC2)[nH]c2ccccc12 (stereo not shown) [CBK281795]	84.3267
COc1ccc(-c2cnn(-c3ccc(OC)cc3)n2)cc1 [CBK112745]	99.9734
COc1ccc(-c2nc(-c3cc4ccccc4o3)cnc2N)cc1OC [CBK064099]	127.692
CN(C)CCNC(=O)C1CCN(c2nc3c(-c4ccccc4F)csc3c(=O)[nH]2)CC1 [CBK215437]	124.545
Cc1ccc(-c2oncc2C(=O)NCc2cccs2)cc1 [CBK153679]	155.172
Cc1ccc2[nH]c3c(c2c1)CCOC31CCN(CCOc2cccc3c2CCCC3=O)CC1 [CBK040230]	94.4056
CC(C)Nc1cc(Cl)ncn1 [CBK081511]	58.6933
FC(F)(F)c1[nH]c2ncccc2c1CN1CCN2CCCCC2C1 (stereo not shown) [CBK285355]	131.336

SMILES	% of control remaining [%]
CC(=O)Nc1ccc(NS(=O)(=O)c2ccc(C)c(C(=O)O)c2)cc1 [CBK295162]	169.894
O=C(O)CCN1C(=O)c2ccc(NC(=O)CCc3ccccc3)cc2C1=O [CBK266422]	156.678
Cc1cnc2[nH]c(C3CC3)c(CN3CC(C)OC(C)C3)c2c1 (stereo not shown) [CBK284741]	111.817
CC(C)(C)c1ccc(C(O)CN2CCC(O)(c3ccc4c(c3)OCO4)CC2)cc1 (stereo not shown) [CBK286336]	118.176
O=C(COc1cccc(Cl)c1)NCCc1ccc(S(=O)(=O)NC(=O)NC2CCCCC2)cc1 [CBK011798]	131.684
Cn1ccnc1C1(O)CC2CCC(C1)N2C(=O)c1ccccc1Cl (stereo not shown) [CBK284090]	128.446
Cc1ccc2c(c1)cc(C(=O)N(C)CC1(C)COC1)n2C [CBK281723]	154.092
Cc1noc(C)c1C(=O)N1CCn2cc(C(F)(F)F)nc2C1 [CBK282431]	100.014
Cn1c(=O)n(CCN2CCOCC2)c(=O)c2c1nc1n2CCN1c1ccc(Oc2ccccc2)cc1 [CBK269202]	162.126
O=C(CSc1nc2sc3c(c2c(=O)n1-c1ccccc1)CCCC3)NCCc1ccccc1 [CBK263280]	113.687
O=c1[nH]c2ncc(-c3ccsc3)nc2n1C1CCCCC1 [CBK064574]	147.642
O=C(NCc1ccco1)c1cccc(Oc2ccccc2)c1 [CBK270333]	123.114
O=C1N[C@@H](Cc2ccc(F)cc2)C(=O)N2CCN(C(=O)N3CCOCC3)C[C@H]12 [CBK289603]	121.164
Cc1ccc(S(=O)(=O)CC(=O)N2CCN(C(=O)c3ccco3)CC2)cc1 [CBK144469]	108.29
Nc1ncc(-c2cccc(C(F)(F)F)c2)c2cccnc12 [CBK067590]	121.664
CC(C)(C)OC(=O)N1CCN(CCOc2ccc(NC(=O)OCc3ccccc3)cc2F)CC1 [CBK016854]	118.089
Cc1cc2c(N3CCCC(NS(C)(=O)=O)C3)nccc2o1 (stereo not shown) [CBK306464]	108.334
CCN(CC(=O)NCc1ccccn1)S(=O)(=O)c1ccccc1 [CBK269546]	139.826
COc1cccc(CN2CCN(C(=O)Cc3cccs3)[C@@H](C)C2)c1 [CBK285487]	114.814
Cc1nn2c(N)ncnc2c1-c1ccc(Cl)cc1 [CBK287880]	109.236

Quoted from the listing:
% of control remaining [%] with `Cc1ccc(-c2oncc2C(=O)NCc2cccs2)cc1` [CBK153679] reads 155.172
% of control remaining [%] with `Cn1c(=O)n(CCN2CCOCC2)c(=O)c2c1nc1n2CCN1c1ccc(Oc2ccccc2)cc1` [CBK269202] reads 162.126
% of control remaining [%] with `Cn1ccnc1C1(O)CC2CCC(C1)N2C(=O)c1ccccc1Cl` (stereo not shown) [CBK284090] reads 128.446
